Experimental data published in article PMC10560298.

T1: uroplakin II (UPII), porcine, prosequence and mature part together (porcine (Sus scrofa; endogenous in urinary bladder)) (UniProt Q95L04)
T1 sequence 1: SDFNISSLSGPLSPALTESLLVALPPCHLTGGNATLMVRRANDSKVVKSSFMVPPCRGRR
T1 sequence 2: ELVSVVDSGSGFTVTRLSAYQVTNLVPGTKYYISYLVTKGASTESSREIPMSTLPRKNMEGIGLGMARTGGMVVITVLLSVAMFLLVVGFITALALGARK


Key:
[1] = biological target: T1, uroplakin II (UPII), porcine, prosequence and mature part together (porcine (Sus scrofa; endogenous in urinary bladder)); assay: cryo-EM structure; native AUM isolated from porcine bladder, 0.05 mg/ml in buffer A (10 mM Hepes pH 7.4, 1 mM EDTA); single particle analysis of specimens tilted 0-55 degrees, C6 symmetry; global resolution 3.5 Å (3.2 Å transverse, 6.3 Å vertical); model started from an AlphaFold prediction; both purified
[2] = biological target: uroplakin IIIa (UPIIIa), porcine (porcine (Sus scrofa; endogenous in urinary bladder)); assay: as above

Molecule | binding [1] | binding [2]
uroplakin Ia (UPIa), porcine | binds | –
uroplakin II (UPII), porcine, prosequence and mature part together (protein, UniProt Q95L04 25-84; Q95L04 85-184) chain 1: SDFNISSLSGPLSPALTESLLVALPPCHLTGGNATLMVRRANDSKVVKSSFMVPPCRGRR chain 2: ELVSVVDSGSGFTVTRLSAYQVTNLVPGTKYYISYLVTKGASTESSREIPMSTLPRKNMEGIGLGMARTGGMVVITVLLSVAMFLLVVGFITALALGARK | – | binds

Results are given in words; binding and its absence hold for the method and conditions named. Binding calls can cover weak binding; strength is not graded here.
